Source: patent US20200291075A1 (TRUSTEES OF PRINCETON UNIVERSITY, published 2020)
No constants are given. Whether binding was seen depends on the method and setting. For part of these data: In cells and extracts the contact can be indirect. Some results given as binding are weak or reduced against the parent protein; the word gives no strength. For part of these data: Tags and fused reporters may be left off the sequences shown.

T1: His6-YFP-SH2 (human, UniProt P00519 112-232)
T1 construct: domain: SH2 domain; also called 6xHis-YFP-protein fusion
T1 sequence (looked up): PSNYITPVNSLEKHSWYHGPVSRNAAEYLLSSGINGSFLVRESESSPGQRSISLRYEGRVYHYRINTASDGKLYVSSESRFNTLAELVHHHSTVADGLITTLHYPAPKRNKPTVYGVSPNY

T2: YFP-SH2 (human, UniProt P00519 112-232)
T2 construct: domain: SH2 domain; also called SH2-tagged YFP; EZ-L703
T2 sequence (looked up): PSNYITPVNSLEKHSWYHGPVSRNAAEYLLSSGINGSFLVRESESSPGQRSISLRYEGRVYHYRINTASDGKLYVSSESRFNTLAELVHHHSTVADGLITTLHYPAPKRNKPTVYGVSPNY


Tests used:
His6-YFP-SH2 [1] = biological target: T1, His6-YFP-SH2; assay: pull-down on His6-YFP-SH2 cobalt beads, SDS-PAGE
His6-YFP-SH2 [2] = biological target: T1, His6-YFP-SH2; assay: pull-down on immobilized 6xHis-YFP target, SDS-PAGE gel
His6-YFP-SH2 [3] = biological target: T1, His6-YFP-SH2; assay: pull-down on His6-YFP-SH2 cobalt beads; binds preferentially in the dark
His6-YFP-SH2 [4] = biological target: T1, His6-YFP-SH2; assay: pull-down on Co2+ agarose beads with His6-YFP-SH2, crude chimera lysate, light or dark, imidazole elution, SDS-PAGE
SH3 = assay: pull-down on cobalt beads with the immobilized bait (band labelled SH3), light (L) or dark (D), imidazole elution, SDS-PAGE
YFP-SH2 [5] = biological target: T2, YFP-SH2; assay: bio-layer interferometry, His-tagged OptoMB on Ni-NTA sensors, YFP-SH2 as ligand
YFP-SH2 [6] = biological target: T2, YFP-SH2; assay: bio-layer interferometry, His-tagged binder on Ni-NTA sensors, YFP-SH2 as ligand, dark conformation
YFP-SH2 [7] = biological target: T2, YFP-SH2; assay: bio-layer interferometry, His-tagged binder on Ni-NTA sensors, YFP-SH2 as ligand, dark conformation (450 nm light, Supplementary Table 2)

Row | Binder | binding (His6-YFP-SH2 [1]) | binding (His6-YFP-SH2 [4]) | binding (His6-YFP-SH2 [2]) | binding (His6-YFP-SH2 [3]) | binding (SH3) | binding (YFP-SH2 [5]) | binding (YFP-SH2 [6]) | binding (YFP-SH2 [7])
1 | HA4-AsLOV2 chimera, SS58 insertion, untagged (OptoMB) (designed binder, Used as crude E. coli extract in the pull-down screen; also called alphaSH2 OptoMonobody; EZ-L706) GSSVSSVPTKLEVVAATPTSLLISWDAPMSSSSVYYYRITYGETGGNSPVQEFTVPYSGLERIEKNFVITDPRLPDNPIIFASDSFLQLTEYSREEILGRNCRFLQGPETDRATVRKIRDAIDNQTEVTVQLINYTKSGKKFWNLFHLQPMRDQKGDVQYFIGVQLDGTEHVRDAAEREGVMLIKKTAENIDEAAGSSTATISGLSPGVDYTITVYAWGEDSAGYMFMYSPISINYRTC | binds | binds | binds | binds | binds | – | – | –
2 | HA4-AsLOV2 chimera, MS29 insertion with residues 30-32 removed (designed binder) GSSVSSVPTKLEVVAATPTSLLISWDAPMGLERIEKNFVITDPRLPDNPIIFASDSFLQLTEYSREEILGRNCRFLQGPETDRATVRKIRDAIDNQTEVTVQLINYTKSGKKFWNLFHLQPMRDQKGDVQYFIGVQLDGTEHVRDAAEREGVMLIKKTAENIDEAAGSVYYYRITYGETGGNSPVQEFTVPYSSSTATISGLSPGVDYTITVYAWGEDSAGYMFMYSPISINYRTC | binds | binds | – | binds | – | – | – | –
3 | OptoMBC450V (designed binder, also called OptoMBC450V 1; OptoMBC450V 2) HHHHHHSSGENLYFQGHASGSSVSSVPTKLEVVAATPTSLLISWDAPMSSSSVYYYRITYGETGGNSPVQEFTVPYSGLERIEKNFVITDPRLPDNPIIFASDSFLQLTEYSREEILGRNVRFLQGPETDRATVRKIRDAIDNQTEVTVQLINYTKSGKKFWNLFHLQPMRDQKGDVQYFIGVQLDGTEHVRDAAEREGVMLIKKTAENIDEAAGSSTATISGLSPGVDYTITVYAWGEDSAGYMFMYSPISINYRTC | – | – | – | – | – | binds | binds | binds

The next lines start with results.

Row | binding (His6-YFP-SH2 [1]) | binding (His6-YFP-SH2 [4]) | Binder | binding (His6-YFP-SH2 [2]) | binding (His6-YFP-SH2 [3]) | binding (SH3) | binding (YFP-SH2 [5]) | binding (YFP-SH2 [6]) | binding (YFP-SH2 [7])
4 | binds | binds | HA4-AsLOV2 chimera, SS59 insertion (designed binder) GSSVSSVPTKLEVVAATPTSLLISWDAPMSSSSVYYYRITYGETGGNSPVQEFTVPYSSGLERIEKNFVITDPRLPDNPIIFASDSFLQLTEYSREEILGRNCRFLQGPETDRATVRKIRDAIDNQTEVTVQLINYTKSGKKFWNLFHLQPMRDQKGDVQYFIGVQLDGTEHVRDAAEREGVMLIKKTAENIDEAAGSTATISGLSPGVDYTITVYAWGEDSAGYMFMYSPISINYRTC | – | – | – | – | – | –
5 | binds | binds | HA4-AsLOV2 chimera, SS30 insertion (designed binder) GSSVSSVPTKLEVVAATPTSLLISWDAPMSGLERIEKNFVITDPRLPDNPIIFASDSFLQLTEYSREEILGRNCRFLQGPETDRATVRKIRDAIDNQTEVTVQLINYTKSGKKFWNLFHLQPMRDQKGDVQYFIGVQLDGTEHVRDAAEREGVMLIKKTAENIDEAAGSSSVYYYRITYGETGGNSPVQEFTVPYSSSTATISGLSPGVDYTITVYAWGEDSAGYMFMYSPISINYRTC | – | – | – | – | – | –
